According to PubChem BioAssay AID1963867 (Molecular Pharmacology Branch, DTP, NCI, 2024):
Several values for one entry are separate records, joined by “and”; a condition that tells them apart may be missing. The calls were made as follows: active = viability on the fitted dose curve at most 10% of control; inactive = the rest. Equal values may be shown once. The source gives many values for each of these; only a part stands here.

System: KRAS-mutant PDC tumor spheroid with HUVEC/MSC, viability
Test: Anticancer human tumor 327498-153-R-J2-PDC patient-derived uterine carcinosarcoma cell line growth inhibition [KRAS2]
Settings: hits give low values
From the text: Multicellular complex tumor spheroid response to RAS pathway inhibitors in combination with a targeted agents in patient-derived cell lines with oncogenic KRAS variants from multiple cancer types
A high-throughput screen of multi-cell type tumor spheroids was designed to identify active combinations of targeted small molecules and KRAS pathway inhibitors. Complex spheroids include a stromal component modeled by human endothelial cells (HUVEC) and fibroblasts modeled by human mesenchymal stem cells (MSCs). The concentration ranges selected for each drug and investigational agent were based upon clinically achievable concentrations if the clinical Cmax of the agent was known.
Compounds. The drugs and investigational agents: BI-3406 (NSC825286), BAY-293 (NSC824723), batoprotafib (TNO155; NSC825523), sotorasib (AMG 510; NSC818433), MRTX1257 (NSC819558), elimusertib (BAY 1895344; NSC800525), molibresib (GSK525762; NSC774829), temuterkib (LY3214996; NSC803410), venetoclax (NSC766270), alisertib (NSC759677), olaparib (NSC753686), talazoparib (NSC767125), erdafitinib (NSC781556), ipatasertib (NSC767898), cabozantinib (NSC761068), nintedanib (NSC756659), abemaciclib (NSC768073), docetaxel (NSC628503), trametinib (NSC758246), and sapanisertib (NSC764658) were obtained from the National Cancer Institute (NCI) Developmental Therapeutics Program Chemical Repository. The FDA-approved anticancer drug set is available from the Developmental Therapeutics Program. […] The stock solutions were prepared in dimethyl sulfoxide (DMSO, Sigma-Aldrich, St. Louis, MO, cat. D2650) at 800-fold the tested concentration and stored at -70 degrees C prior to their use. All drugs and investigational agents were tested over a range starting from a high concentration at or near the clinical Cmax and decreasing in half-log increments. If the clinical Cmax for an agent had not been determined, the highest concentration tested was 10 microM.
Cell Culture. All cells were maintained in an incubator at 37 degrees C and 5% CO2 with 95% humidity. The PDC lines were cultured according to standard operating procedures established by the NCI PDMR (https://pdmr.cancer.gov/sops/default.htm). Briefly, all PDCs were thawed and cultured in Matrigel-coated flasks prepared with a working solution of 1X Ham's F-12 nutrient mix, without supplementation (Invitrogen, Waltham, MA, cat. 11765054), 100 U/mL penicillin-streptomycin (Invitrogen, cat. 15140122), and 2.5% Matrigel (Corning Inc., Corning, NY, cat. 354248) for the first three passages. All PDCs were cultured in complete DMEM/F-12 media containing advanced DMEM/F-12 (Invitrogen, cat. 12634028), 4.9% defined fetal bovine serum, heat inactivated (HyClone Laboratories Inc., Logan, UT, cat. SH30070.03HI), 389 ng/mL hydrocortisone (Sigma-Aldrich, cat. H4001), 9.7 ng/mL human EGF recombinant protein (Invitrogen, cat. PHG0313), 23.4 microg/mL adenine (Sigma-Aldrich, cat. A2786), 97.3 U/mL penicillin-streptomycin (Invitrogen, cat. 15140122), 1.9 mM L-glutamine (Invitrogen, cat. 25030081), and 9.7 microM Y-27632 dihydrochloride (Tocris Bioscience, Bristol, United Kingdom, cat. 1254). The PDCs were cultured in complete DMEM/F12 media without 9.7 microM Y-27632 dihydrochloride for at least two passages prior to the screen. The established cell line HOP-62 was cultured in RPMI 1640 medium, HEPES (Invitrogen, cat. 22400105) with 10% defined fetal bovine serum (HyClone Laboratories Inc., cat. SH30070.03) and 2 mM L-glutamine (Invitrogen, cat. 25030081). The pooled donor HUVEC were cultured in endothelial cell growth medium 2 (PromoCell, Heidelberg, Germany, cat. C-22011) and the hMSC were cultured in mesenchymal stem cell growth medium 2 (PromoCell, cat. C-28009). For all experiments, HUVEC and hMSC were used at passages </=5, while the malignant cell lines were used at passages </=15. […]

Measured: viability, T/C
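Also: spheroids exposed to agents for seven days before reading; 100% = DMSO vehicle wells so lower means fewer viable cells.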

CC1OCC2(CCN(c3cnc(Sc4ccnc(N)c4Cl)c(N)n3)CC2)C1N (stereo unspecified)
inactive: compound 0.0316 µM 106% and 78.8% | compound 0.1 µM, compound 0.0316 µM 69.4% | compound 0.1 µM, compound 0.316 µM 62.5% | compound 0.1 µM, compound 1 µM 46.5% | compound 0.1 µM, compound 3.16 µM 39.7% | compound 0.1 µM, compound 10 µM 32.9% | compound 0.1 µM 80.8% and 71.2% and 69.3% | compound 0.316 µM, compound 0.0316 µM 56.7% | compound 0.316 µM, compound 0.1 µM 51.2% | compound 0.316 µM, compound 1 µM 43.4% | compound 0.316 µM, compound 3.16 µM 39.7% | compound 0.316 µM, compound 10 µM 31.8% | compound 0.316 µM 60.2% [middle of 4 runs] | compound 1 µM, compound 0.0316 µM 47.4% | compound 1 µM, compound 0.1 µM 48.3% | compound 1 µM, compound 0.316 µM 43.7% | compound 1 µM, compound 3.16 µM 37.2% | compound 1 µM, compound 10 µM 27.5% | compound 1 µM 52% and 43.9% and 42.7% | compound 3.16 µM, compound 0.0316 µM 31.5% | compound 3.16 µM, compound 0.1 µM 37.2% | compound 3.16 µM, compound 0.316 µM 31.4% | compound 3.16 µM, compound 1 µM 29.8% | compound 3.16 µM, compound 10 µM 25.4% | compound 3.16 µM 39.3% and 38.5% and 28.6% | compound 10 µM, compound 0.0316 µM 27.4% | compound 10 µM, compound 0.1 µM 30.7% | compound 10 µM, compound 0.316 µM 23.6% | compound 10 µM, compound 1 µM 25.8% | compound 10 µM, compound 3.16 µM 24.7% | compound 10 µM 31.1% and 33.4% and 22.2%
